PubChem BioAssay AID1259254 – NCATS – 2017

- Purpose: 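Genome-wide screen for genes that prevent DNA re-replication in cancer cells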 (primary screen)
- Cell system: human HCT116 colorectal cancer cells
- Reagents: single siRNA against human genes
- Timing: 3 days
- Detection: 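Imaged Hoechst DNA stain sorts each cell into a cycle phase by DNA amount; per plate, G2 fraction set to 0% for non-targeting and 100% for GMNN siRNA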
- Direction: G2 robust z-score: higher = more G2 cells, more excess DNA replication
- Call rule: 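Active siRNAs have a G2 robust z of 5 or more median absolute deviations over the median, which in these data means about 38% or higher of GMNN control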
Here is one part, drawn at random, of about 59,000 reagents. Of all reagents, about 1,550 (2.6%) got an active call. 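G2 share is only a proxy for re-replication; each gene was hit by three separate siRNAs, and active genes were retested.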 Entries without a mark were called inactive. The numbers tell different reagents against one gene apart. Further read-outs or replicates are left out here. Not stated in the record: the amount of reagent.

Gene | reagent no. | G2 robust z-score
CTSH (GeneID 1512) | 1 | -0.521
CTSH (GeneID 1512) | 2 | -0.721
CTSH (GeneID 1512) | 3 | -0.434
NETO2 (GeneID 81831) | 1 | -0.927
NETO2 (GeneID 81831) | 2 | -1.13
NETO2 (GeneID 81831) | 3 | -1.14
TMEM14B (GeneID 81853) | 1 | 1.91
TMEM14B (GeneID 81853) | 2 | -0.961
TMEM14B (GeneID 81853) | 3 | -0.0656
GRM7 (GeneID 2917) | 1 | -0.332
GRM7 (GeneID 2917) | 2 | 1.59
GRM7 (GeneID 2917) | 3 | 1.67
AKR1C6P (GeneID 389932) | 1 | 0.0803
AKR1C6P (GeneID 389932) | 2 | -1.2
AKR1C6P (GeneID 389932) | 3 | 2.84
RAB36 (GeneID 9609) | 1 | 1.32
RAB36 (GeneID 9609) | 2 | -0.0651
RAB36 (GeneID 9609) | 3 | 4.98
OTUD6A (GeneID 139562) | 1 | -0.5
OTUD6A (GeneID 139562) | 2 | -0.776
OTUD6A (GeneID 139562) | 3 | -0.522
C3orf80 (GeneID 401097) | 1 | -1.02
C3orf80 (GeneID 401097) | 2 | -0.849
C3orf80 (GeneID 401097) | 3 | 0.712
OR2B2 (GeneID 81697) | 1 | -1.35
OR2B2 (GeneID 81697) | 2 | -0.0827
OR2B2 (GeneID 81697) | 3 | 0.244
HERC1 (GeneID 8925) | 1 | -0.269
HERC1 (GeneID 8925) | 2 | 0.349
HERC1 (GeneID 8925) | 3 | -0.73

An excerpt taken from the entries so far, as a working copy:
Gene | reagent no. | G2 robust z-score
AKR1C6P (GeneID 389932) | 3 | 2.84
RAB36 (GeneID 9609) | 1 | 1.32
RAB36 (GeneID 9609) | 2 | -0.0651
RAB36 (GeneID 9609) | 3 | 4.98
OTUD6A (GeneID 139562) | 1 | -0.5
OTUD6A (GeneID 139562) | 2 | -0.776
OTUD6A (GeneID 139562) | 3 | -0.522
C3orf80 (GeneID 401097) | 1 | -1.02
C3orf80 (GeneID 401097) | 2 | -0.849
C3orf80 (GeneID 401097) | 3 | 0.712
OR2B2 (GeneID 81697) | 1 | -1.35
OR2B2 (GeneID 81697) | 2 | -0.0827
OR2B2 (GeneID 81697) | 3 | 0.244
HERC1 (GeneID 8925) | 1 | -0.269

Additional entries follow:
Gene | reagent no. | G2 robust z-score
ENY2 (GeneID 56943) | 1 | -0.329
ENY2 (GeneID 56943) | 2 | -0.46
ENY2 (GeneID 56943) | 3 | -0.159
TMED2 (GeneID 10959) | 1 | -0.12
TMED2 (GeneID 10959) | 2 | 0.884
TMED2 (GeneID 10959) | 3 | -0.748
RPL9P11 (GeneID 642740) | 1 | -0.254
RPL9P11 (GeneID 642740) | 2 | -0.137
RPL9P11 (GeneID 642740) | 3 | 0.644
RAB23 (GeneID 51715) | 1 | -0.373
RAB23 (GeneID 51715) | 2 | 1.15
RAB23 (GeneID 51715) | 3 | -0.93
PTGDR2 (GeneID 11251) | 1 | 8.03 (active)
PTGDR2 (GeneID 11251) | 2 | 1.25
PTGDR2 (GeneID 11251) | 3 | -0.501
C1QTNF9 (GeneID 338872) | 1 | -0.657
C1QTNF9 (GeneID 338872) | 2 | 1.48
C1QTNF9 (GeneID 338872) | 3 | -0.932
C7orf25 (GeneID 79020) | 1 | 0.821
C7orf25 (GeneID 79020) | 2 | -0.493
C7orf25 (GeneID 79020) | 3 | -0.995
SHOX (GeneID 6473) | 1 | 3.67
SHOX (GeneID 6473) | 2 | -0.664
SHOX (GeneID 6473) | 3 | 2.24
OR1B1 (GeneID 347169) | 1 | -0.0169
OR1B1 (GeneID 347169) | 2 | -0.782
OR1B1 (GeneID 347169) | 3 | 2.54
TEX10 (GeneID 54881) | 1 | -0.0154
TEX10 (GeneID 54881) | 2 | 0.0398
TEX10 (GeneID 54881) | 3 | -0.68
EFTUD2 (GeneID 9343) | 1 | 1.65
EFTUD2 (GeneID 9343) | 2 | 2.14
EFTUD2 (GeneID 9343) | 3 | 1.56
H2AC8 (GeneID 3012) | 1 | -1.38
H2AC8 (GeneID 3012) | 2 | -0.778
H2AC8 (GeneID 3012) | 3 | -0.483
LOC440300 (GeneID 440300) | 1 | -0.243
LOC440300 (GeneID 440300) | 2 | 6.75 (active)
LOC440300 (GeneID 440300) | 3 | -0.523
SIMC1 (GeneID 375484) | 1 | 2.74
SIMC1 (GeneID 375484) | 2 | -0.649
SIMC1 (GeneID 375484) | 3 | 0.0827
TUBG2 (GeneID 27175) | 1 | 2.28
TUBG2 (GeneID 27175) | 2 | 0.599
TUBG2 (GeneID 27175) | 3 | -0.277
SORCS2 (GeneID 57537) | 1 | -0.185
SORCS2 (GeneID 57537) | 2 | -0.811
SORCS2 (GeneID 57537) | 3 | 1.43
YBX3 (GeneID 8531) | 1 | -1.1
YBX3 (GeneID 8531) | 2 | -0.167
YBX3 (GeneID 8531) | 3 | -0.348
PAK1 (GeneID 5058) | 1 | -0.0447
PAK1 (GeneID 5058) | 2 | -0.792
PAK1 (GeneID 5058) | 3 | -0.352
OR7E154P (GeneID 403296) | 1 | -0.439
OR7E154P (GeneID 403296) | 2 | -0.444
OR7E154P (GeneID 403296) | 3 | -0.339
